Experimental data published in publication PMC10333598.

B1: full-length human TCTP (FL-TCTP) (protein, UniProt P13693 1-172)
chain: MIIYRDLISHDEMFSDIYKIREIADGLCLEVEGKMVSRTEGNIDDSLIGGNASAEGPEGEGTESTVITGVDIVMNHHLQETSFTKEAYKKYIKDYMKSIKGKLEEQRPERVKPFMTGAAEQIKHILANFKNYQFFIGENMNPDGMVALLDYREDGVTPYMIFFKDGLEMEKC
B2: TCTP BH3-like peptide (TCTPBH3) (peptide, UniProt P13693 11-32)
peptide: DEMFSDIYKIREIADGLCLEVE

How the values were obtained:
[1] = target: T1, full-length human TCTP (FL-TCTP) (human) (UniProt P13693); assay: NMR titration; 15N and 13C SOFAST-HMQC of labeled TCTP (100 μM) with unlabeled Mcl-1 (2 eq., 2 h incubation); 950 MHz, 278 K, 50 mM EPPS pH 8, 50 mM MES, 50 mM NaCl, 2 mM TCEP; both purified
T1 sequence: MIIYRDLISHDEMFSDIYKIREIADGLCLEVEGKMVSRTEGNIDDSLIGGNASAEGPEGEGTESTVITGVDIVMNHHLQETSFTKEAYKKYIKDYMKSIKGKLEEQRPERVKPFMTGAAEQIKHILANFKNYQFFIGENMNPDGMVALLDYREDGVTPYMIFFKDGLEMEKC

[2] = target: human Mcl-1 ΔPESTΔTM (human); assay: NMR competition; 15N-FL-TCTP−Mcl-1 complex formed first, then TCTPBH3 added; reciprocal: TCTPBH3−Mcl-1 complex formed first, then FL-TCTP added (1D methyl signals); both purified
[3] = target: human Mcl-1 ΔPESTΔTM (human); assay: NMR titration; 15N SOFAST-HMQC of 15N-Mcl-1 (100 μM) with unlabeled FL-TCTP (2 eq., 2 h incubation) or TCTPBH3 peptide; 950 MHz, 308 K, 50 mM EPPS pH 8, 50 mM MES, 50 mM NaCl, 2 mM TCEP; both purified
[4] = target: human Mcl-1 ΔPESTΔTM (human); assay: condition: only Mcl-1 already in complex with the competitor TCTPBH3; NMR competition; 15N-FL-TCTP−Mcl-1 complex formed first, then TCTPBH3 added; reciprocal: TCTPBH3−Mcl-1 complex formed first, then FL-TCTP added (1D methyl signals); both purified
[5] = target: human Mcl-1 ΔPESTΔTM (human); assay: condition: only in an equimolar mix with the competitors TCTPBH3D16I and MuleBH3 (5 eq. total); NMR competition (15N SOFAST-HMQC); 15N-Mcl-1 with an excess (5 eq. total) of an equimolar mix of TCTPBH3, TCTPBH3D16I and MuleBH3, 2 h at room temperature; populations from intensities of seven reporter residues; 950 MHz, 298 K, 50 mM MES pH 6.5, 50 mM EPPS, 50 mM NaCl, 2 mM TCEP; both purified

Row | Molecule | binding [1] | binding [2] | binding [3] | binding [4] | binding [5]
1 | human Mcl-1 ΔPESTΔTM (domain or fragment) | binds |  |  |  | 
2 | B1 |  | binds | binds | no binding | 
3 | B2 |  | binds | binds |  | no binding

Results are given in words; binding and its absence hold for the method and conditions named. For some of these results: Binding can be weak; no strength is given.
